The values below come from article PMC8924000.

Sequences of proteins named here, by UniProt entry; tags and fusion partners are left off.
UniProt P67809: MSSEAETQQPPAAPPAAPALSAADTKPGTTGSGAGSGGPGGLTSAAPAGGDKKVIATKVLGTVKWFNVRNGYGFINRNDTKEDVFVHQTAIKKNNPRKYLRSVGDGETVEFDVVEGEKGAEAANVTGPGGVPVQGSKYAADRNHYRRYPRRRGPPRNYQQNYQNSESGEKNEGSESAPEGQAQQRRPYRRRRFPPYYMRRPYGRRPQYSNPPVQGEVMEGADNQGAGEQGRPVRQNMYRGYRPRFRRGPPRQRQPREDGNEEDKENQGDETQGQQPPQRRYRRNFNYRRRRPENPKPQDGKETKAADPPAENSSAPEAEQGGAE

Assay [1] has as its target T1, Flag-GSDME (gasdermin E, wild type) (human) (UniProt O60443).
T1 sequence: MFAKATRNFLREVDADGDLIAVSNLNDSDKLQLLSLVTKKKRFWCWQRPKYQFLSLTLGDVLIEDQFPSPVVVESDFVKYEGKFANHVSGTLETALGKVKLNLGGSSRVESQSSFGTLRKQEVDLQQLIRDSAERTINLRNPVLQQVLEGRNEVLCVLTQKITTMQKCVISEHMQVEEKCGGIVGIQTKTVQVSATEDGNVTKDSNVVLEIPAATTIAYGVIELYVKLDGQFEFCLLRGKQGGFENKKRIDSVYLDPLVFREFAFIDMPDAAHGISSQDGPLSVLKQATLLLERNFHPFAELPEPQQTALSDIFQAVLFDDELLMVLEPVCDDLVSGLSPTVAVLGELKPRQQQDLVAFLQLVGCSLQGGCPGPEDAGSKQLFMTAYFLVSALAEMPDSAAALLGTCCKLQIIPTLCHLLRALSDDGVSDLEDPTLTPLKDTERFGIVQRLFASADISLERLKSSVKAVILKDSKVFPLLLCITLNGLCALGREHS
The assay is described as follows: proximity ligation; Duolink in situ PLA in AsPC-1 cells (GSDME knockout, re-expressing Flag-tagged constructs) treated with PBS or trypsin/chymotrypsin for 48 h; anti-Flag and anti-YBX1 antibodies; fixed, permeabilised cells.

For assay [2], the target named is T2, Flag-GSDMB (gasdermin B, wild type) (human) (UniProt Q8TAX9).
T2 sequence: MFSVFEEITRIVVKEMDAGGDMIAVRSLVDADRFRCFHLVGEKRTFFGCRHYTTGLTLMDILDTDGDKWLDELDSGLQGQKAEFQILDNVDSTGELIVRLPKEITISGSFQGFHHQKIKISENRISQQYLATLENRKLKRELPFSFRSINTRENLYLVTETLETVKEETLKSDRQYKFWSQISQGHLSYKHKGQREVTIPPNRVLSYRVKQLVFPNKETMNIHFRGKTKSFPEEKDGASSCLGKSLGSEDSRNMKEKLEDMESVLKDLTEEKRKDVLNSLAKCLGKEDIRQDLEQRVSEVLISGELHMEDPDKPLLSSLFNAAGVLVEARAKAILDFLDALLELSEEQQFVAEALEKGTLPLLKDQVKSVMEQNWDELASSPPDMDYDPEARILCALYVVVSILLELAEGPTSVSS
Described as above.

The target in assay [3] is T1, Flag-GSDME (gasdermin E, wild type) (human). As to the kind of experiment: co-IP; AsPC-1 cells treated with trypsin/chymotrypsin for 36 h; cytosolic or nuclear fraction immunoprecipitated with anti-Flag-GSDME antibody; YBX1 by western blot. In general terms: Immunoblotting shows a protein as a band on a membrane.

These are yes or no findings as the source states them, for the method shown. Binding seen in cells or lysates may run through a third protein. Some results given as binding are weak or reduced against the parent protein; the word gives no strength. Tags and fused reporters may be left off the sequences shown.

Turning to “Y-box-binding protein 1 (YBX1), endogenous (from UniProt P67809 1-324)”, the binding entry in assay [1] was “binds”; in assay [2] it was “no binding”; in assay [3], “binds”.
